Experimental data: paper PMC11876612
No constants are given. Whether binding was seen depends on the method and setting. Binding seen in cells or lysates may run through a third protein. Some binding calls cover weakened binding; strength is not graded here.

Chains of the proteins cited; added tags and fusions are not shown.
UniProt O43293: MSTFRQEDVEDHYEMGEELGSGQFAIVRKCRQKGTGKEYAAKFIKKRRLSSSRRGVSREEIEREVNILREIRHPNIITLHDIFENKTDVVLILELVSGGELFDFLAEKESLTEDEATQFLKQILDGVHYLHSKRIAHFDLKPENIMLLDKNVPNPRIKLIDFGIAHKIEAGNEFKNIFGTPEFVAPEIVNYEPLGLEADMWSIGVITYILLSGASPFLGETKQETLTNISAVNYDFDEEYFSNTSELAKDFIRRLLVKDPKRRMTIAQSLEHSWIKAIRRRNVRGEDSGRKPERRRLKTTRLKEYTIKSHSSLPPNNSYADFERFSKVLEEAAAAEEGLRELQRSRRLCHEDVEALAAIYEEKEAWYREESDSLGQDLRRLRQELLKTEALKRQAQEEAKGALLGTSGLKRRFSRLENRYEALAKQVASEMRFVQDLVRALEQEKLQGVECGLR
UniProt O54784: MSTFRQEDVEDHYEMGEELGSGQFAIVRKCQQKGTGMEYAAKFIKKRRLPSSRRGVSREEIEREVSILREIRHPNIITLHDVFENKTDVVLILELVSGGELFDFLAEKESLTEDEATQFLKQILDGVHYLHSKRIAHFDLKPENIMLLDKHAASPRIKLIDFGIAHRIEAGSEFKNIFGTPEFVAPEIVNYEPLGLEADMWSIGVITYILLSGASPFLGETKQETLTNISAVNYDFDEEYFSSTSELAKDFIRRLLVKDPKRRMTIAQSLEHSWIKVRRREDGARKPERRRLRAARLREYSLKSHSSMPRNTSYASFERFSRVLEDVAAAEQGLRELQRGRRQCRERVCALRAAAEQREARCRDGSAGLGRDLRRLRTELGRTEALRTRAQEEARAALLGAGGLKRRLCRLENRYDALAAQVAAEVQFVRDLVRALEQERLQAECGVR
UniProt O75618: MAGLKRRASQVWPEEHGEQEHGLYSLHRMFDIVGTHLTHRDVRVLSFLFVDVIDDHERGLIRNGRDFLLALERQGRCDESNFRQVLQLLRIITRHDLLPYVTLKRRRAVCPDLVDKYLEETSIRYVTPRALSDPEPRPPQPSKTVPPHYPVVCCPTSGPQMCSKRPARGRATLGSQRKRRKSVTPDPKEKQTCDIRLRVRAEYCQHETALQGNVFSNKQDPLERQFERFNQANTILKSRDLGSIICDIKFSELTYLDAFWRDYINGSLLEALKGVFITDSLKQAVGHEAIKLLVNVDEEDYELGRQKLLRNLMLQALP

Experiments:
[1] = target: Zipper-interacting protein kinase (in SH-SY5Y cells) (UniProt O43293); assay: co-IP; SH-SY5Y cell lysate in NP-40 lysis buffer; primary antibody at 4 °C for 2 h, protein A/G plus-agarose at 4 °C for 1 h; immunoblotting
[2] = target: Zipper-interacting protein kinase (in HEK293T cells) (UniProt O43293); assay: co-IP; HEK293T cell lysate in NP-40 lysis buffer; primary antibody at 4 °C for 2 h, protein A/G plus-agarose at 4 °C for 1 h; immunoblotting
[3] = target: T1, death effector domain-containing DNA binding protein (mouse (endogenous in mouse brain)) (UniProt Q9Z1L3); assay: co-IP; mouse brain lysate in NP-40 lysis buffer; primary antibody (anti-ZIPK or anti-DEDD) at 4 °C for 2 h, protein A/G plus-agarose at 4 °C for 1 h; immunoblotting
T1 sequence: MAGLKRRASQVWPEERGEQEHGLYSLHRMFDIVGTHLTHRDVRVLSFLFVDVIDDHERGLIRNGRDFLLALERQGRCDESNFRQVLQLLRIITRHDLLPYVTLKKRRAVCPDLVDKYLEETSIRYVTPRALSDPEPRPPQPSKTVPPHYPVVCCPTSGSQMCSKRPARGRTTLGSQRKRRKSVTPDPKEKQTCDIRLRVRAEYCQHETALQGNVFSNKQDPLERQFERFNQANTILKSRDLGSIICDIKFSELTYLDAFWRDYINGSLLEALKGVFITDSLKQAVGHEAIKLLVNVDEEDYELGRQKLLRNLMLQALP

[4] = target: Zipper-interacting protein kinase (mouse (endogenous in mouse brain)) (UniProt O54784); assay: as above

“death effector domain-containing DNA binding protein (in SH-SY5Y cells) (from UniProt O75618 1-318)” was tested, and the binding [1] was “binds”.

“death effector domain-containing DNA binding protein (in HEK293T cells) (from UniProt O75618 1-318)” was tested, and the binding [2] was “binds”.

With “Zipper-interacting protein kinase (from UniProt O54784 1-448) (enzyme)” the binding [3] was “binds”.

B1: death effector domain-containing DNA binding protein (protein, UniProt Q9Z1L3 1-318)
chain: T1 sequence
For B1, the binding [4] was “binds”.
